Measured values published in US9758537B2 (Achillion Pharmaceuticals, Inc., priority 2014, dated 2017).

By UniProt entry, the sequences of proteins in these tests, tags left out. Residues count along the entry.
UniProt P00746, 26-253: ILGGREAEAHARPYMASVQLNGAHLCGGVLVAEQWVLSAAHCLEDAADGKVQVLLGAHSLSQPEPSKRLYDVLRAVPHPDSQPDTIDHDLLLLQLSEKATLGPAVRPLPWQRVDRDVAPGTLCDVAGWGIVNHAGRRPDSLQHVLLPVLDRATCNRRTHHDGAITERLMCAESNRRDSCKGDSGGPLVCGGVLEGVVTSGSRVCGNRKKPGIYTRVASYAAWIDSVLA

Molecular target: Human factor D (Homo sapiens (Human), UniProt P00746)
Assay: Human Factor D Assay
Assay type: biochemical
Settings: human factor D 80 nM, substrate Z-L-Lys-SBzl, DTNB, OD405
Method: Human factor D (purified from human serum, Complement Technology, Inc.) at 80 nM final concentration is incubated with test compound at various concentrations for 5 minutes at room temperature in 50 mM Tris, 1M NaCl, pH 7.5. A synthetic substrate Z-L-Lys-SBzl and DTNB (Ellman's reagent) are added to final concentrations of 10 μM each. The increase in color is recorded at OD405 nm in a microplate in kinetic mode over 30 minutes with 30 second time points in a […]. IC50 values are calculated by non-linear regression from the percentage of inhibition of complement factor D activity as a function of test compound concentration.

Work on `CC(=O)c1cn(CC(=O)N2C[C@H](F)C[C@H]2C(=O)NC2Cc3ccccc3C2)c2ccccc12` [Compound 43, (2S,4R)-1-(2-(3-acetyl-1H-indol-1-yl)acetyl)-N-(2,3-dihydro-1H-inden-2-yl)-4-fluoropyrrolidine-2-carboxamide] yielded an IC50 of less than 1000 nM.
